Reference: PubChem BioAssay AID445 (National Center for Advancing Translational Sciences (NCATS), 2006)
This is one part of the list. Further columns of the screen follow, without active or inactive calls. The list favours compounds with an active or inconclusive main result. The note in brackets gives the kind of curve behind each potency; many fits are weak.

Test: IkB Signaling
Settings: ABC-DLBCL IkBa-CBG/CBR dual luciferase ratio (green luciferase fused to IkBa over red control in OCI-Ly3 lymphoma cells), 4 h; measured here: control luc red channel unless noted
Outline: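 Luminescence ratio of IκBα-fused green versus native red beetle luciferase in OCI-Ly3 cells, 4 h post-doxycycline with compound; red signal alone, scaled from basal (0%) to zero light (-100%), flagged nonspecific or cytotoxic effects.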

| Structure (SMILES) | AC50 |
| --- | --- |
| CCOC(=O)C1CCN(C(=O)CSc2c3c(nc4ccc(Cl)cc24)CCCC3)CC1 | 10 µM [falling, partial curve] |
| O=C(NCc1ccc(Cl)cc1)C(=O)NCC(c1ccco1)S(=O)(=O)c1cccs1 (stereo not drawn) | 25.1 µM [falling, single point] |
| CCCCNC(=O)c1ccc2c(=O)n(-c3ccccc3)c(=O)[nH]c2c1 | 6.31 µM [falling, partial curve] |
| CSc1ccc(S(=O)(=O)NCCOc2ccccc2C)cc1 | 7.94 µM [falling, partial curve] |
| c1ccc(OCCSc2nnnn2-c2ccccc2)cc1 | 20 µM [falling, single point] |
| COc1cc(OC)cc(C(=O)Nc2ccc3nc(N4CCC(C)CC4)cc(C)c3c2)c1 | 3.98 µM [falling, full curve, poor fit] |
| O=C(CCNc1ccc(Cl)c(C(F)(F)F)c1)c1ccco1 | 15.8 µM [falling, partial curve] |
| Cc1noc(C)c1S(=O)(=O)N1CCC(C(=O)N2CCN(c3ccccc3Cl)CC2)CC1 | 20 µM [falling, partial curve] |
| Cc1ccc2c(CC(=O)Nc3cc(C(F)(F)F)ccc3Cl)coc2c1C | 20 µM [falling, partial curve] |
| CCC12CN3CC(CC)(CN(C1)C3c1ccc(OCc3ccccc3)cc1)C2=O (stereo not drawn) | 7.94 µM [falling, partial curve] |
| O=S(=O)(c1cccs1)N1CCC(Cc2ccccc2)CC1 | 15.8 µM [falling, partial curve] |
| O=C(Cn1nnc2sc3c(c2c1=O)CCCC3)Nc1ccc(F)c(Cl)c1 | 5.01 µM [falling, partial curve] |
| COc1cccc(NC(CNS(=O)(=O)c2ccc(C)cc2)c2ccccc2)c1 (stereo not drawn) | 15.8 µM [falling, partial curve] |
| CCN1C(=O)c2ccccc2Sc2ccc(NC(=O)c3ccc(C)c(F)c3)cc21 | 12.6 µM [falling, partial curve] |
| O=C1/C(=C/Nc2ccc3c(c2)OCO3)CCc2ccccc21 | 7.94 µM [falling, partial curve] |
| CCCS(=O)(=O)NCCc1csc2nc(-c3ccc(OC)cc3)nn12 | 3.98 µM [rising, partial curve] |
| Cc1cc(-c2ccc(C)c(S(=O)(=O)NCc3ccc(Cl)cc3)c2)on1 | 20 µM [falling, partial curve] |
| N#Cc1ccccc1NC(=O)CSc1nnc(-c2ccccc2)n1-c1ccccc1 | 39.8 µM [falling, single point] |
| CCc1c(C)nc2nncn2c1Nc1ccc(C)c(F)c1 | 25.1 µM [falling, partial curve, poor fit] |
| COc1ccc(-c2cc(C(=O)N3CC4(C)CC3CC(C)(C)C4)no2)cc1OC (stereo not drawn) | 5.01 µM [falling, partial curve] |
| COc1ccccc1N(CC(=O)NCCSCc1ccc(Cl)cc1)S(C)(=O)=O | 39.8 µM [falling, single point] |

| Structure (SMILES) | AC50 |
| --- | --- |
| COc1cccc(CNC(=O)c2c(O)nc3ccccn3c2=O)c1 | 39.8 µM [falling, single point] |
| CCOC(=O)CN1C(=O)C(C)(C)Oc2ccc(C(=O)Nc3ccccc3)cc21 | 25.1 µM [falling, partial curve] |
| CCOc1ccc(N2CC(c3nc4ccccc4n3CC(C)C)CC2=O)cc1 (stereo not drawn) | 12.6 µM [falling, partial curve] |
| COc1cc(-c2noc(-c3ccc(NCCc4ccccc4)c([N+](=O)[O-])c3)n2)cc(OC)c1OC | 7.94 µM [falling, partial curve] |
| N#CC(C#N)=c1ccc2c(c1)NC1(CCCCC1)N=2 | 3.16 µM [rising, full curve] [measured here: IkB-luc green channel] |
| Cc1ccc(C)c(N2CCN(C(=O)c3ccc4c(Cl)c5c(nc4c3)CCCC5)CC2)c1 | 25.1 µM [falling, partial curve] |
| O=c1oc2ccc(Br)cc2cc1-c1nc(-c2ccccc2)no1 | 0.158 µM [falling, full curve, poor fit] |
| CC(C)OCCCN1C(=O)c2[nH]nc(-c3ccccc3O)c2C1c1cccc(Cl)c1 (stereo not drawn) | 20 µM [falling, partial curve] |
| Cc1cccc(NC(=O)CSc2nc3c(oc4ccccc43)c(=O)n2C(C)C)c1 | 39.8 µM [falling, single point] |
| CC(C)c1nnc(NC(=O)CSc2nc3ccccc3s2)s1 | 25.1 µM [falling, partial curve] |
| O=c1c2cnn(-c3ccccc3)c2nc(-c2ccco2)n1-c1ccccc1 | 7.94 µM [falling, partial curve] |
| COCCNC(=O)CCCn1c(SCC(=O)Nc2cccc(C)c2)nc2c(sc3ccccc32)c1=O | 12.6 µM [falling, partial curve] |
| O=C(c1ccc(CNS(=O)(=O)c2ccccc2)cc1)N1CCN(c2ccccn2)CC1 | 15.8 µM [falling, partial curve] |
| Cc1cccc(N2CCN(CCCNc3ncnc4onc(-c5ccc(F)cc5)c34)CC2C)c1 (stereo not drawn) | 12.6 µM [falling, partial curve] |
| O=C(CCNS(=O)(=O)c1ccc2c(c1)CCN2C(=O)C1CC1)Nc1ccc(OC(F)(F)F)cc1 | 0.1 µM [falling, full curve] |
| COc1cccc(C(=O)Nc2ccc3nc(SCCOc4ccccc4)sc3c2)c1 | 0.501 µM [falling, full curve] |
| CCc1ccc2oc(-c3cc(NC(=O)c4cccs4)ccc3Cl)nc2c1 | 20 µM [falling, single point] |
| COC(=O)C1CCN(C(=O)COc2ccc(Cl)cc2)CC1 | 2 µM [falling, full curve] |
| COC(=O)CN1C(=O)CSc2ccc(S(=O)(=O)Nc3ccc(C)c(Cl)c3)cc21 | 39.8 µM [falling, single point] |
| CCOCC(=O)Nc1nc2ccc(C)cc2s1 | 12.6 µM [falling, partial curve] |
| CCCCCOc1ccc(/C=C/C(=O)Nc2sc3c(c2C(=O)OCC)CCC3)cc1OC | 15.8 µM [falling, single point] |

| Structure (SMILES) | AC50 |
| --- | --- |
| CNC(=O)c1cnc2sc(N3CCC(C)CC3)nn2c1=O | 39.8 µM [rising, single point] |
| CCCCOc1cccc(C2c3c(-c4cc(C)ccc4O)n[nH]c3C(=O)N2CCOC)c1 (stereo not drawn) | 31.6 µM [falling, single point] |
| CCCN1C(C(=O)c2ccccc2)=C(OC(=O)COc2ccc(C)cc2)c2ccccc2S1(=O)=O | 12.6 µM [falling, partial curve] |
| Cc1ccc(NC(=O)C2CCCN(S(=O)(=O)c3cccs3)C2)c(C)c1 (stereo not drawn) | 10 µM [falling, partial curve] |
| COc1ccc(S(=O)(=O)N(CC(=O)Nc2ccc(Br)cc2)Cc2ccccc2)cc1 | 5.01 µM [rising, partial curve] |
| CCCCN(CCCC)C(=O)c1c[nH]c2ccc(S(=O)(=O)Nc3cccc(Cl)c3C)cc2c1=O | 10 µM [falling, partial curve] |
| CCN1CCN(C(=O)Cn2ncc3c4ccccc4n(Cc4c(C)cc(C)cc4C)c3c2=O)CC1 | 25.1 µM [falling, single point] |
| COc1cccc2cc(C(=O)Nc3ccc(C)cc3)c(=O)oc12 | 0.0794 µM [falling, full curve] |
| Cc1ccc2c(=O)cc(C(=O)Nc3sc4c(c3C(=O)NCc3cccnc3)CCCC4)oc2c1 | 39.8 µM [falling, single point] |
| O=C(NC1CCCCC1)c1noc2c1CCCCC2 | 3.98 µM [falling, partial curve] |
| O=C(CSc1ncnc2c1cnn2-c1ccccc1)Nc1ccc2c(c1)OCO2 | 3.98 µM [falling, full curve, poor fit] |
| Cc1ccc(CN(C(=O)COc2ccc(F)cc2)C2CCS(=O)(=O)C2)o1 (stereo not drawn) | 2.51 µM [falling, partial curve] |
| Cc1ccc(-n2ncc(C(=O)NCCN3CCC(Cc4ccccc4)CC3)c2C2CCN(C(=O)OC(C)(C)C)CC2)cc1 | 15.8 µM [falling, partial curve] |
| Cc1cc(NS(=O)(=O)c2ccc(NC(=O)COc3cc(C)c(Br)cc3C(C)C)cc2)no1 | 12.6 µM [falling, partial curve] |
| CCOC(=O)c1ccc(NC(=O)c2c(O)c3ccccc3n(C)c2=O)cc1 | 0.0794 µM [falling, full curve] |
| CCCCNC(=O)CSc1nc2cc3c(cc2c(=O)n1CCCC(=O)NCc1ccc(OC)cc1)OCO3 | 2 µM [rising, full curve, poor fit] |
| O=C1CN(C(=O)c2ccc(S(=O)(=O)N3CCCC3)cc2)C(c2ccc(F)cc2)c2cc(Br)ccc2N1 (stereo not drawn) | 39.8 µM [falling, single point] |
| CN1CCN(c2nc3cc(C(F)(F)F)ccc3n3cccc23)CC1 | 31.6 µM [falling, single point] |
| COC(=O)c1ccccc1NC(=O)NCc1ccc2c(c1)CCN2C(=O)c1ccccc1 | 25.1 µM [falling, partial curve, poor fit] |
| Cc1ccc2c(c1)N(C(=O)N1CCC(C(=O)Nc3cccc(F)c3)CC1)CCO2 | 20 µM [falling, partial curve, poor fit] |
| COc1ccccc1Nc1cc(C(=O)NCCCN(C)C2CCCCC2)c2ccccc2n1 | 31.6 µM [falling, partial curve, poor fit] |

Quoted at random: 5 entries already listed.

| Structure (SMILES) | AC50 |
| --- | --- |
| CNC(=O)c1cnc2sc(N3CCC(C)CC3)nn2c1=O | 39.8 µM [rising, single point] |
| COc1ccc(S(=O)(=O)N(CC(=O)Nc2ccc(Br)cc2)Cc2ccccc2)cc1 | 5.01 µM [rising, partial curve] |
| Cc1ccc(CN(C(=O)COc2ccc(F)cc2)C2CCS(=O)(=O)C2)o1 (stereo not drawn) | 2.51 µM [falling, partial curve] |
| COc1cccc2cc(C(=O)Nc3ccc(C)cc3)c(=O)oc12 | 0.0794 µM [falling, full curve] |
| Cc1ccc(-n2ncc(C(=O)NCCN3CCC(Cc4ccccc4)CC3)c2C2CCN(C(=O)OC(C)(C)C)CC2)cc1 | 15.8 µM [falling, partial curve] |
